# Source: PubChem BioAssay AID190 (DTP/NCI, 2004)
# The list is a part of this screen's results and no random one: it gathers tests that were run many times, whatever their T/C, doses with no T/C, and many T/C values between a quarter and a half above the control. Further doses and runs are listed elsewhere. T/C: endpoint of the treated group in % of that of the vehicle group. Some entries give survivors of the animals treated and no T/C: the source holds a T/C of zero for them, seemingly a mark for toxic or unscored doses. Some survivor counts are full or nearly so, which does not show that the dose was tolerated: survival well below the control is almost never listed, so the zero probably covers shortened survival too. Survivors were counted at the toxicity check, usually on the fifth day, unless a day is given; later deaths do not show. Schedules are NCI's codes, taken here to give the interval after Q, in days (D) or hours (H), and the number of doses after X. Additions like (4×) give the number of equal values in this list. Some entries hold several experiments; the values are given in rising order. Where survival is the endpoint, the PubChem record calls one and a half times the control and up active, and a quarter to a half above the control has no call in these data; cut-offs in other NCI protocols can differ. Some T/C values are followed by the survivors on the day toxicity was checked, most often the fifth; where none is given, no animal had died by that day.
# Test system: AKR/Lw mice, AKR lymphoma ip, median survival T/C
# Test: NCI In Vivo Anticancer Drug Screen. Data for tumor model Lymphoma AKR (Transplanted) (intraperitoneal) in AKR/Lw mice
# Details: T/C endpoint: median survival time, higher T/C = longer survival
# Method: The antitumor activity of compounds was measured in mice bearing transplantable tumors. Survival or tumor size were measured and the results are expressed as the measurement made in the treated group (T) divided by the measurement made in the vehicle treated control group (C). The tumor model used in this assay is Lymphoma AKR (Transplanted) (intraperitoneal) in AKR/Lw mice
# [1] = dose: 400.0 mg/kg/injection, schedule: Q01DX001 (ip), vehicle: Klucel (hydroxypropylcellulose) (HPC)
compound,measurement,setting,value
CS(=O)(=O)OCCCCOS(C)(=O)=O,survivor count,"dose: 2.5 mg/kg/injection, schedule: Q01DX009 (ip), vehicle: Klucel (hydroxypropylcellulose) (HPC)",10 of 10
same,T/C,"dose: 5.0 mg/kg/injection, schedule: Q01DX009 (ip), vehicle: saline",129 % of control [9 of 10 alive]
same,survivor count,"dose: 10.0 mg/kg/injection, schedule: Q01DX009 (ip), vehicle: Klucel (hydroxypropylcellulose) (HPC)",10 of 10
same,survivor count,"dose: 10.0 mg/kg/injection, schedule: Q01DX009 (ip), vehicle: saline",10 of 10
same,survivor count,"dose: 12.0 mg/kg/injection, schedule: Q01DX009 (ip), vehicle: saline",10 of 10
same,survivor count,"dose: 15.0 mg/kg/injection, schedule: Q01DX009 (ip), vehicle: saline",10 of 10
same,survivor count,"dose: 20.0 mg/kg/injection, schedule: Q01DX009 (ip), vehicle: Klucel (hydroxypropylcellulose) (HPC)",10 of 10
same,survivor count,"dose: 25.0 mg/kg/injection, schedule: Q01DX009 (ip), vehicle: saline",9 of 10
same,survivor count,"dose: 32.0 mg/kg/injection, schedule: Q01DX009 (ip), vehicle: saline",10 of 10
same,T/C,"dose: 50.0 mg/kg/injection, schedule: Q01DX001 (ip), vehicle: saline, evaluated on day 45",100 % of control
same,T/C,"dose: 50.0 mg/kg/injection, schedule: Q01DX001 (ip), vehicle: saline, evaluated on day 60","90, 100, 105, 106, 111 % of control"
same,survivor count,"dose: 50.0 mg/kg/injection, schedule: Q01DX005 (ip), vehicle: Klucel (hydroxypropylcellulose) (HPC)",9 of 10
same,survivor count,"dose: 50.0 mg/kg/injection, schedule: Q01DX009 (ip), vehicle: saline",10 of 10 (2×)
same,survivor count,"dose: 64.0 mg/kg/injection, schedule: Q01DX009 (ip), vehicle: saline",2 of 10
same,survivor count,"dose: 75.0 mg/kg/injection, schedule: Q04DX003 (ip), vehicle: saline",10 of 10
same,survivor count,"dose: 100.0 mg/kg/injection, schedule: Q01DX001 (ip), vehicle: saline",10 of 10
same,survivor count,"dose: 100.0 mg/kg/injection, schedule: Q01DX005 (ip), vehicle: Klucel (hydroxypropylcellulose) (HPC)",0 of 10
same,survivor count,"dose: 100.0 mg/kg/injection, schedule: Q01DX009 (ip), vehicle: saline",8 of 10
same,survivor count,"dose: 100.0 mg/kg/injection, schedule: Q04DX003 (ip), vehicle: Klucel (hydroxypropylcellulose) (HPC)",9 of 10
same,survivor count,"dose: 150.0 mg/kg/injection, schedule: Q04DX003 (ip), vehicle: saline",10 of 10
same,survivor count,"dose: 200.0 mg/kg/injection, schedule: Q01DX001 (ip), vehicle: saline",8 of 10 and 9 of 10
same,survivor count,"dose: 200.0 mg/kg/injection, schedule: Q01DX005 (ip), vehicle: Klucel (hydroxypropylcellulose) (HPC)",4 of 10
same,survivor count,"dose: 200.0 mg/kg/injection, schedule: Q04DX003 (ip), vehicle: Klucel (hydroxypropylcellulose) (HPC)",7 of 10
same,survivor count,[1],6 of 10
same,survivor count,"dose: 400.0 mg/kg/injection, schedule: Q04DX003 (ip), vehicle: Klucel (hydroxypropylcellulose) (HPC)",1 of 10
CCOc1ccc(Br)cc1/C=N\N=C\c1cc(Br)ccc1OCC,survivor count,"dose: 100.0 mg/kg/injection, schedule: Q01DX001 (ip), vehicle: Klucel (hydroxypropylcellulose) (HPC)",10 of 10
same,survivor count,"dose: 200.0 mg/kg/injection, schedule: Q01DX001 (ip), vehicle: Klucel (hydroxypropylcellulose) (HPC)",10 of 10
same,survivor count,[1],10 of 10
